Earlier results as cited in patent US20100093678A1, “Compositions and methods of the treatment of obesity and osteoporosis” (THE UNIVERSITY OF GEORGIA RESEARCH FOUNDATION, INC, priority 2008, published 2010).
For at least one compound, name, drawing or mass did not settle the structure.

Conditions: annual infusion of 5 mg, cited from earlier work

O=P(O)(O)C(O)(Cn1ccnc1)P(=O)(O)O [zoledronic acid]
reduced risk of any fracture: 35%
non-vertebral fracture risk (treated group): 7.6%
risk of any fracture (treated group): 8.6%
vertebral fracture risk (treated group): 1.7%
